Reference: publication PMC2361662 (British Journal of Cancer, 2005)

Test system: PLC-γ, AKT, ERK, STAT3
Test: cells
Conditions: read-out: Average IC50 of signalling molecule phosphorylation site inhibition
Method: For determination of phosphorylated proteins, 5 μg whole cell lysate from serum-starved cells was resolved by SDS–PAGE and electroblotted onto nitrocellulose membranes. After transfer and blocking in 5% nonfat milk, primary antibody staining was carried out by incubation overnight at 4°C, and secondary antibody staining was for 1 h at room temperature. The chemiluminescence detection method (ECL) was used for all Western blot experiments.
Extracellular regulated kinase-1 and -2 (ERK-2), phospholipase C γ (PLC-γ), protein kinase B (AKT) and the signal transducer and activator of transcription 3 (STAT3) are all essential downstream targets of EGFR and mediate many of its oncogenic effects.
Figure 3 (A) Phosphorylation of key signalling molecules upon EGF (10 nM for 10 min) stimulation in the four cell lines.

COc1cc2ncnc(Nc3ccc(F)c(Cl)c3)c2cc1OCCCN1CCOCC1 [gefitinib]
IC50: 11 nM
